Experimental data published in patent US20240000794A1, “LACTAM AND LACTONE DERIVATIVES FOR USE IN THE TREATMENT OF A VIRAL INFECTION SUCH AS COVID-19” (UNIVERSITÉ CATHOLIQUE DE LOUVAIN, priority 2020, published 2024).
Some of these results come from one statement about several compounds together.

Test system: SARS-CoV-2
Type: cell-based
Conditions: Caco-2 cells, after 24 h

`O=C1CCC[C@@H](C(=O)O)N1` [lactam 3, (S)-6-oxopiperidine-2-carboxylic acid] was tested, and the “reduction of SARS-Cov2 RNA levels in infected cells” value was “up to 45%”.
With `O=C1CSC[C@@H](C(=O)O)N1` [lactam 2, (R)-5-oxothiomorpholine-3-carboxylic acid] the “reduction of SARS-Cov2 RNA levels in infected cells” value was “up to 45%”.
